This is an account of results in PubChem BioAssay AID1487 (National Center for Advancing Translational Sciences (NCATS), 2009).

In general, AC50 refers to the midpoint of the concentration-response curve, whichever way the signal moves.

This assay can be described thus: qHTS Assay for Modulators of Lamin A Splicing. The conditions noted are these: HeLa LMNA splicing GFP/RFP minigene ratio, 48 h. In a few lines: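 Read-out is the ratio of GFP to DsRed2 object intensity, acquired by 488 nm laser-scanning cytometry on HeLa lamin A-EGFP minigene reporter cells. Compound incubation 48 hrs at 37 °C in Opti-MEM with 2% FBS; DMSO 0.5% final.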
Background: qHTS replaces the single test concentration by a dilution series.

Setting [1] is: measured here: RFP viability control channel.
The mark [2] stands for this setting: measured here: GFP splicing reporter channel.

The structures appear in SMILES notation. The list shows a part of the results. Further columns of the screen follow, without active or inactive calls. Most of these compounds were active or inconclusive in the main read-out, so they are no random draw. Words in brackets tell the shape of the fitted curve; partial curves, single points and poor fits give uncertain potencies.

As for `O=S(=O)(c1ccc(OCC(O)CN2CCN(c3ccc(F)cc3)CC2)cc1)N1CCOCC1` (stereo not given), the AC50 under setting [1] was 14.1 µM [rising, partial curve]. As to `O=C(c1ccc(COc2ccccc2Br)o1)N1N=C(C(F)F)CC1(O)C(F)F` (stereo not given), the AC50 under setting [1] was 35.5 µM [rising, single point]. With `CN(C)c1nc(N)c([N+](=O)[O-])c(NCc2ccccc2)n1`, the AC50 under setting [2] was 4.47 µM [falling, full curve, poor fit] and the AC50 under setting [1] was 5.01 µM [falling, full curve, poor fit]. As to `O=C(CSc1ccc(-c2cccs2)nn1)Nc1ccccc1F`, the AC50 reads like this: under setting [2], 0.141 µM [rising, full curve]; under setting [1], 0.178 µM [rising, full curve]. As for `O=C(Nc1ccc2nc(SCC(=O)N3CCCC3)sc2c1)c1cccc(Cl)c1`, the AC50 under setting [1] was 17.8 µM [rising, partial curve]. With `Cc1nc(SC(C)C)[nH]c(=O)c1Cc1ccccc1`, the AC50 under setting [2] is 11.2 µM [rising, partial curve]. The same measure, in the same setting: then `O=C(Nc1ccccc1)N1N=C(c2ccc(F)cc2)CC1c1ccc(F)cc1` (stereo not given), with 12.6 µM [rising, single point]. Consider `CC(C)C(=O)Nc1cccc(NC(=S)NC(=O)C(c2ccccc2)c2ccccc2)c1`, for which the AC50 under setting [2] was 25.1 µM [falling, single point] and the half-maximal activity concentration (AC50) under setting [1] was 20 µM [falling, partial curve]. Turning to `CCCc1cc(=O)[nH]c(SCC(=O)c2ccc(S(=O)(=O)N3CCCC3)cc2)n1`, the half-maximal activity concentration (AC50) under setting [2] was 31.6 µM [rising, single point] and the AC50 under setting [1] is 0.282 µM [falling, partial curve, poor fit]. On to `CCS(=O)(=O)Nc1cccc(C2=NN(S(=O)(=O)c3ccc(C)cc3)C(c3cccs3)C2)c1` (stereo not given), for which the AC50 under setting [1] was 17.8 µM [rising, single point]. `COc1cccc(-n2c(C)nn(CCOc3ccccc3)c2=O)c1`: the AC50 under setting [1] was 15.8 µM [rising, single point]. In the case of `Cc1ccsc1/C=C/c1ccc2cccc(O)c2n1`, the AC50 under setting [1] was 20 µM [rising, single point]. `Cn1c(=O)n(CC(=O)Nc2ccccc2)c2ccccc21`: the AC50 under setting [1] is 17.8 µM [rising, partial curve]. Turning to `O=C(CSc1nnc(SCc2ccc(Cl)cc2)s1)c1ccc2c(c1)OCO2`, under setting [1], the AC50 was 22.4 µM [rising, single point]. Turning to `COc1ccccc1NC(=S)N(CCc1c(C)[nH]c2ccccc12)Cc1cccs1`, under setting [1], the AC50 is 10 µM [rising, single point]. For `COc1ccc(C(C)=O)cc1COC(=O)c1cccc(N(C)C)c1`, the AC50 under setting [2] was 5.62 µM [rising, single point].

As to `CCCCC(=O)NC(=S)Nc1ccccc1N1CCCCC1`, the concentration at half-maximal activity (AC50) reads like this: under setting [2], 11.2 µM [rising, partial curve]; under setting [1], 15.8 µM [rising, single point]. Consider `CCCCC(=O)Nc1cccn2ncnc12`, for which, under setting [2], the AC50 is 0.00794 µM [rising, full curve]. On to `O=C(CCSc1ccc(Cl)cc1)c1cccs1`, for which the AC50 under setting [1] is 35.5 µM [rising, single point].

Regarding `O=C(Nc1nccs1)c1ccc(COc2ccc(Cl)cc2)o1`, the AC50 under setting [2] was 31.6 µM [rising, single point]. With `Cc1cccc(-n2ccnc2SCC(=O)Nc2cccc3ccccc23)c1C`, the AC50 under setting [2] is 35.5 µM [falling, single point]. As for `COc1cc(NC(=O)c2ccc3c(=O)n(Cc4ccco4)c(=S)[nH]c3c2)cc(OC)c1OC`, the AC50 under setting [1] is 25.1 µM [falling, single point]. As for `CCn1c(=O)c(C(=O)NNS(=O)(=O)c2ccc(Cl)cc2)c(O)c2ccccc21`, the AC50 under setting [1] was 35.5 µM [rising, single point]. On the same count and under the same terms, the value for `Cc1ccc(/C=C/c2onc(C)c2S(=O)(=O)N2CCC(C(=O)N3CCN(c4ccccc4F)CC3)CC2)cc1` was 1.58 µM [falling, full curve]. For `CC(Oc1ncnc2ccccc12)C(=O)Nc1cccc(S(=O)(=O)N2CCOCC2)c1` (stereo not given), the concentration at half-maximal activity (AC50) is 22.4 µM [rising, single point] under setting [2] and 17.8 µM [rising, single point] under setting [1].

As to `Cc1ccccc1Cc1c(C)nc2c(C(=O)NCc3ccco3)cnn2c1C`, under setting [1], the AC50 is 5.62 µM [falling, single point]. As to `COC(=O)c1ccccc1NC(=O)CSc1nc2ccccc2c(=O)[nH]1`, the AC50 under setting [1] was 15.8 µM [rising, single point].

As to `CCOc1ccccc1CN1CCc2nc(Nc3ccc4c(c3)OCCO4)ncc2C1`, under setting [2], the AC50 was 14.1 µM [falling, single point]. Take `COc1ccc(OC)c(NC(=O)CSc2nnc(CNc3ccc(F)cc3)o2)c1`: under setting [1], the AC50 is 3.55 µM [rising, partial curve, poor fit]. In the case of `COc1ccc(-c2noc(CCC(=O)Nc3cccnc3)n2)cc1OC`, the AC50 is, setting by setting: under setting [2], 15.8 µM [rising, partial curve]; under setting [1], 14.1 µM [rising, partial curve]. For the compound `Cc1ccc(-c2cc(NC(=O)CCl)n(-c3ccccc3)n2)cc1`, the AC50 was 35.5 µM [falling, single point] under setting [2] and 0.282 µM [rising, partial curve, poor fit] under setting [1]. Consider `Cc1ccc(NC(=O)Cn2cnc3sc(C(=O)NCCN(C)C)c(C)c3c2=O)cc1Cl`, for which the AC50 under setting [1] is 12.6 µM [rising, single point]. The same measure, in the same setting: then `CC(Nc1cccnc1)=C(C#N)C#N`, with 12.6 µM [rising, partial curve]. Consider `COC(=O)Cc1cc(=O)[nH]c(/N=C(\N)Nc2ccc(C(C)C)cc2)n1`, for which the AC50 under setting [2] is 0.355 µM [rising, full curve, poor fit].

As to `O=C(NC(=S)NC1CCCCCC1)c1cncc(Br)c1`, the AC50 is 14.1 µM [rising, partial curve] under setting [2] and 5.62 µM [rising, partial curve, poor fit] under setting [1]. As for `Cc1occc1C(=O)NC1CCCCCCC1`, the AC50 under setting [1] is 17.8 µM [rising, single point]. Same read-out and setting: the value for `CC(C)NC(=O)CN(C(=O)CCC(=O)Nc1ccccn1)c1ccc(F)c(Cl)c1` was 39.8 µM [rising, partial curve, poor fit]; that for `CCC(C)n1c(NC(=O)c2ccccc2)c(C#N)c2nc3ccccc3nc21` (stereo not given) was 22.4 µM [falling, single point]. In the case of `COC(=O)c1cn(NC(=O)Cc2ccc(Cl)c(Cl)c2)c(=O)c2ccccc12`, the AC50 reads like this: under setting [2], 12.6 µM [rising, single point]; under setting [1], 20 µM [rising, single point]. `COc1cc(C2CC(c3cccnc3)=NN2c2ccc(F)cc2)cc(OC)c1OC` (stereo not given): the AC50 under setting [1] is 31.6 µM [rising, single point].

On to `Cc1nc(N2CCC3(CC2)OCCO3)c2nnn(Cc3ccccc3F)c2n1`, for which the concentration at half-maximal activity (AC50) is 10 µM [rising, partial curve] under setting [2] and 11.2 µM [rising, single point] under setting [1]. In the case of `O=C(/C=C/c1cccc([N+](=O)[O-])c1)NCCSCc1ccc(Cl)cc1Cl`, the AC50 under setting [1] is 31.6 µM [rising, single point]. On the same count and under the same terms, the value for `Cc1ccc(-c2cc(-c3n[nH]c(=S)o3)c3ccccc3n2)cc1` was 0.00355 µM [falling, full curve, poor fit]; that for `Cc1ccc(-c2nnc(CSc3nnc(COc4cccc5ccccc45)n3-c3ccccc3)o2)cc1` was 12.6 µM [rising, partial curve].

For the compound `COc1cccc(-c2ccc3ncnc(NCc4cccs4)c3c2)c1`, the AC50 under setting [2] is 15.8 µM [falling, partial curve] and the AC50 under setting [1] is 22.4 µM [falling, partial curve].

Turning to `COc1cccc(OCC(=O)O)c1`, the AC50 by setting is: under setting [2], 0.282 µM [falling, full curve, poor fit]; under setting [1], 0.0501 µM [falling, full curve, poor fit].

Turning to `C=CCNc1ncnc2c1ncn2C1OC(CO)C(O)C1O` (stereo not given), the AC50 under setting [1] was 7.08 µM [falling, partial curve]. As for `COc1ccc2nc(NC(=O)C(NS(=O)(=O)c3cccc4nsnc34)C(C)C)sc2c1` (stereo not given), the AC50 was 35.5 µM [falling, single point] under setting [2] and 22.4 µM [falling, single point] under setting [1]. With `CN(C)/C=N/c1cc(=O)[nH]c(=O)n1C`, the AC50 under setting [2] is 5.01 µM [falling, partial curve, poor fit] and the AC50 under setting [1] is 4.47 µM [falling, partial curve]. Consider `O=C(CN1C(=O)COc2ccc(S(=O)(=O)NC3CCCC3)cc21)Nc1ccc(Cl)cc1`, for which the AC50 under setting [1] was 35.5 µM [rising, single point]. Regarding `O=C(COC(=O)c1cccs1)c1ccccc1`, the AC50 under setting [1] is 4.47 µM [rising, partial curve]. For the compound `CC(=O)Nc1ccc(NC2=C(Cl)C(=O)c3ccccc3C2=O)cc1`, the AC50 under setting [2] is 14.1 µM [falling, single point]. For the compound `CC1=C(C(=O)OCc2ccccc2)C(c2ccsc2)NC(=O)N1C` (stereo not given), the AC50 under setting [2] was 0.282 µM [falling, full curve]. Take `Cc1cc(=O)oc2cc(Nc3ccccc3)ccc12`: the AC50 under setting [1] was 20 µM [rising, partial curve, poor fit]. Turning to `COc1cccc(CNC(=O)c2ccc3c(c2)nc2n3CCOC2)c1`, the AC50 under setting [2] was 0.0224 µM [rising, partial curve, poor fit]. Regarding `Cc1oc(=O)oc1CN1CCN(c2cc3c(cc2F)c(=O)c(C(=O)O)c2n3C(C)S2)CC1` (stereo not given), the AC50 is 14.1 µM [rising, partial curve, poor fit] under setting [2] and 12.6 µM [rising, partial curve] under setting [1]. Consider `COc1ccccc1NC(=O)CN1C(=O)C2(SCC(=O)N2c2ccc(F)c(F)c2)c2ccccc21` (stereo not given), for which the AC50 was 8.91 µM [falling, full curve, poor fit] under setting [2] and 31.6 µM [falling, partial curve, poor fit] under setting [1]. On to `CCN1C(=O)/C(=C/c2nc3ccccc3c(=O)n2-c2ccccc2)c2ccccc21`, for which, under setting [1], the AC50 was 3.16 µM [rising, full curve, poor fit].
